Data reported in patent US20220260574A1, “METHODS OF DETERMINING THERAPIES BASED ON SINGLE CELL CHARACTERIZATION OF CIRCULATING TUMOR CELLS (CTCS) IN METASTATIC DISEASE” (Epic Sciences, Inc., priority 2017, published 2022).
Where two headings read alike, the source gives them in different places. At least one structure is not confirmed: it was looked up by name or label, or the drawing left a doubt.

Test system: mCRPC patients
[1] = patients without vs with the presence of cell type K

## C[C@]12CC[C@H](O)CC1=CC[C@@H]1[C@@H]2CC[C@]2(C)C(c3cccnc3)=CC[C@@H]12 [abiraterone]
All patients, Abi vs Enza
  Time on therapy (Tx): similar
  overall survival (OS): similar
Patients with the presence of cell type K
  hazards of death, therapy favoured in multivariate cox proportional hazards model: more favorable
Patients with the presence of cell type K, Abi vs Enza, not statistically significant (p=0.1)
  OS: better
[1]
  OS: no differences
  Time on Tx: no differences
  rPFS: no differences
